According to PMC4585773, “The C-terminus hot spot region helps in the fibril formation of bacteriophage-associated hyaluronate lyase (HylP2)” (Scientific Reports, 2015):
These are yes or no findings as the source states them, for the method shown.

B1: bacteriophage-associated hyaluronate lyase HylP (enzyme, UniProt P15316 1-371)
chain: MTENIPLRVQFKRMSADEWARSDVILLEGEIGFETDTGFAKFGDGQNTFSKLKYLTGPKGPKGDTGLQGKTGGTGPRGPAGKPGTTDYDQLQNKPDLGAFAQKEETNSKITKLESSKADKSAVYSKAESKIELDKKLSLTGGIVTGQLQFKPNKSGIKPSSSVGGAINIDMSKSEGAAMVMYTNKDTTDGPLMILRSDKDTFDQSAQFVDYSGKTNAVNIVMRQPSAPNFSSALNITSANEGGSAMQIRGVEKALGTLKITHENPNVEAKYDENAAALSIDIVKKQKGGKGTAAQGIYINSTSGTAGKMLRIRNKNEDKFYVGPDGGFHSGANSTVAGNLTVKDPTSGKHAATKDYVDEKIAELKKLILKK

Legend:
[1] = target: HylP2_(V147A) (Streptococcus pyogenes bacteriophage) (UniProt Q54699); assay: ANS fluorescence kinetics; ANS fluorescence at 465 nm against time, seeded with preformed HylP2 fibrils; step: the native enzyme to fibrils; both purified
[2] = target: HylP2_(V147A) (Streptococcus pyogenes bacteriophage) (UniProt Q54699); assay: SEC; Superdex 200 HR 10/300, 25 °C, pH 5, 0.3 ml/min; step: the native enzyme to high molecular weight aggregates (void volume), compared with pH 7; no seeds; both purified
[3] = target: HylP2_(V147A) (Streptococcus pyogenes bacteriophage) (UniProt Q54699); assay: thioflavin T fluorescence + Congo red absorbance; 5 uM protein dialysed at pH 5 (10 mM CGH buffer), 10 uM dye, 25 °C; step: the native enzyme to fibrils; no seeds; both purified
[4] = target: HylP2_(V147A) (Streptococcus pyogenes bacteriophage) (UniProt Q54699); assay: thioflavin T fluorescence kinetics; pH 5, 5 uM protein, 10 uM ThT, emission at 480 nm against time, seeded with preformed HylP2 fibrils; step: the native enzyme to fibrils; both purified
[5] = target: bacteriophage-associated hyaluronate lyase HylP (Streptococcus pyogenes bacteriophage) (UniProt P15316); assay: ANS fluorescence kinetics; ANS fluorescence at 465 nm against time, seeded with preformed HylP2 fibrils; step: the native enzyme to fibrils; both purified
[6] = target: bacteriophage-associated hyaluronate lyase HylP (Streptococcus pyogenes bacteriophage) (UniProt P15316); assay: SEC; Superdex 200 HR 10/300, 25 °C, pH 5, 0.3 ml/min; step: the native enzyme to high molecular weight aggregates (void volume), compared with pH 7; no seeds; both purified
[7] = target: bacteriophage-associated hyaluronate lyase HylP (Streptococcus pyogenes bacteriophage) (UniProt P15316); assay: thioflavin T fluorescence + Congo red absorbance; 5 uM protein dialysed at pH 5 (10 mM CGH buffer), 10 uM dye, 25 °C; step: the native enzyme to fibrils; no seeds; both purified
[8] = target: bacteriophage-associated hyaluronate lyase HylP (Streptococcus pyogenes bacteriophage) (UniProt P15316); assay: thioflavin T fluorescence kinetics; pH 5, 5 uM protein, 10 uM ThT, emission at 480 nm against time, seeded with preformed HylP2 fibrils; step: the native enzyme to fibrils; both purified

Molecule	binding [1]	binding [2]	binding [3]	binding [4]	binding [5]	binding [6]	binding [7]	binding [8]
HylP2_(V147A) (from UniProt Q54699 1-337) (enzyme)	no binding	no binding	no binding (tested: 5 uM)	no binding (tested: 5 uM)	–	–	–	–
B1	–	–	–	–	no binding	no binding	no binding (tested: 5 uM)	no binding (tested: 5 uM)
